Here are results for 42 sequences from paper PMC7819943, “Rice protein-binding microarrays: a tool to detect cis-acting elements near promoter regions in rice”.

Amino acid sequences for entries named in this document (tags omitted).
UniProt Q0JBA9, entry or part of it: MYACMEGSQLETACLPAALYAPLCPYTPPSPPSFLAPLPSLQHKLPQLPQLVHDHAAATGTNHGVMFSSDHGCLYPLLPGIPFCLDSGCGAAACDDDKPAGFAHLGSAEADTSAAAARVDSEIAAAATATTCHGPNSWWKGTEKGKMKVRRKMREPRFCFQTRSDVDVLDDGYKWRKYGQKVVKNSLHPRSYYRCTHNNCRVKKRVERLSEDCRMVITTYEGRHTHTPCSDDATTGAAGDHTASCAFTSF

Some of the results follow.

For this assay, the target named is OsWRKY34 (Oryza sativa, UniProt Q0JBA9 1-250). The assay can be described thus: protein-binding microarray (RPBM); PBS, 2% BSA, 51.3 ng/ul salmon testes DNA, 50 uM zinc acetate, 200 nM TF, 25 C, 1 h; high values mean tight binding. As to conditions: protein: recombinant; tags: N-terminal polyhistidine and DsRed monomer fusion (pET32a); label: CyDye5-dUTP incorporated in the synthesized complementary strand; 3' TTTTT single-stranded linker to array surface; dsDNA, one strand shown. In a few lines: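 In PBS with 2% BSA, salmon testes DNA and 50 µM zinc acetate, 200 nM protein was incubated on a custom Agilent array at 25 °C for 1 h and then washed off. The array had been made double-stranded by primer extension with Cy5-dUTP and blocked with 2% BSA. The proteins were transcription factors fused N-terminally to polyhistidine and DsRed, expressed in E. coli BL21-CodonPlus and purified on Ni–NTA. The binding signal is per-feature fluorescence intensity (arbitrary units) from an Axon 4000B scanner.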
As to “ATACACACTTCAGTCACTCGGTAGGCCACTCCGTACGGCACGGAGTCACCTAGTGCAG”, the binding signal is 8510 fluorescence intensity (a.u.).
Next, “CATTGAATTTGCACTAGCATCTCTTCTATTTATATCTACTCGGAGTCACCTAGTGCAG”: 9110 fluorescence intensity (a.u.); “AAGGGAGGGTTTTTATGAAATTTGTACCACCTACTTTTTGCGGAGTCACCTAGTGCAG”: 8580 fluorescence intensity (a.u.); “CCATTTTTTCACTTTAGTGTTGCGCAGTAGTACACCACCACGGAGTCACCTAGTGCAG”: 8280 fluorescence intensity (a.u.).
The figure for “TCAACCATTCATTGCTCTTCACTATCCAATTTATTTTTGTCGGAGTCACCTAGTGCAG” is 8500 fluorescence intensity (a.u.); for “TTGATTGATTTTTTTTATATATATTTGCTATTAATAGTCACGGAGTCACCTAGTGCAG” it is 8830 fluorescence intensity (a.u.).
As to “TCTAAAATGATCATGTCGCCCATTTCCCATACTTACATGCCGGAGTCACCTAGTGCAG”, the binding signal is 8540 fluorescence intensity (a.u.).
Regarding “CGCTCCCAACACCTCGCGCATTCACTCTGACGCACCGGGCCGGAGTCACCTAGTGCAG”, the binding signal is 8340 fluorescence intensity (a.u.).
Next, “ACCGCCACAGCTTCTGCTTTTTCGCGCGCACCGCGATAGCCGGAGTCACCTAGTGCAG”: 9710 fluorescence intensity (a.u.); “ACGTCAATTCTATTCCTATATTTTTCATATATCGGTTCCTCGGAGTCACCTAGTGCAG”: 9600 fluorescence intensity (a.u.).
The figure for “CCCTTGGTCATATTCACCGCCGGAGCTCACCACCGATGTTCGGAGTCACCTAGTGCAG” is 8680 fluorescence intensity (a.u.); for “TTCTTGGCTTGGCTCCTCTGGTGTTCTTGTGCTCTGGGTTCGGAGTCACCTAGTGCAG” it is 9970 fluorescence intensity (a.u.); for “ACATATTGTCGTCACTACATATATACGCAACCATGCATGCCGGAGTCACCTAGTGCAG” it is 10100 fluorescence intensity (a.u.).
Next, “GGCCCTGAGCTCTCTCTTGCTGCTTCTTTTAATGGGTTTTCGGAGTCACCTAGTGCAG”: 9680 fluorescence intensity (a.u.).
Turning to “CGTTCAGTTAATACGGTATAATTTTGTCCTATGGTTGAAACGGAGTCACCTAGTGCAG”, the binding signal was 9310 fluorescence intensity (a.u.).
Next, “TTCCGGTTCTATTGTCTTTGTCCTGTAGCTTCCAACACTCCGGAGTCACCTAGTGCAG”: 15800 fluorescence intensity (a.u.).
The figure for “ATCCTATACTTGACATGAGCATTTGCATTTACGGGTAATTCGGAGTCACCTAGTGCAG” is 9020 fluorescence intensity (a.u.).
For “CTACAGGCTTGTTCAGATTGGTACCATTTTAAACCATACCCGGAGTCACCTAGTGCAG”, the binding signal is 10100 fluorescence intensity (a.u.).
Next, “TGCTGTAGGACCCATTTGACCTGGTTTTGCTAGATTAGGGCGGAGTCACCTAGTGCAG”: 8320 fluorescence intensity (a.u.); “GGCTTTGATTCCCGTCCCTATATAGCTCCACACCCACCACCGGAGTCACCTAGTGCAG”: 13000 fluorescence intensity (a.u.); “TTCGGTGTCCGGTCTGATTTTTTCTACTATGCTGCATAGTCGGAGTCACCTAGTGCAG”: 8930 fluorescence intensity (a.u.).
The figure for “TGCATCATATCCAGTACTTTTTTACTTCCTCTCCGTTTAACGGAGTCACCTAGTGCAG” is 12100 fluorescence intensity (a.u.); for “TTCACATGACTCAAAATTTTGGCTTCGCGCGCGCTAGTAACGGAGTCACCTAGTGCAG” it is 8420 fluorescence intensity (a.u.).
Next, “AGTTGCTTACTACTCCCTCCGTTTCACAATGTAAGTCATTCGGAGTCACCTAGTGCAG”: 9620 fluorescence intensity (a.u.); “TTAAAATGCACACAACCGGACACACACAACCACACTCAAACGGAGTCACCTAGTGCAG”: 8110 fluorescence intensity (a.u.); “ATACTAGTCCATTCGAGTTGAAACGTTCAGTGAACAGCTACGGAGTCACCTAGTGCAG”: 8030 fluorescence intensity (a.u.).
For “CACCAACATGGCTAGGCCCAAGCCCAACTCGTGATCCAGTCGGAGTCACCTAGTGCAG”, the binding signal is 8320 fluorescence intensity (a.u.).
“CTGTTCATGTCTTCTTGTTCTTGCCACAGCCAACAGCATGCGGAGTCACCTAGTGCAG”: the binding signal is 8200 fluorescence intensity (a.u.).
The figure for “AGGCACCACATATGCACTCCTCGGTTGCTGTCAAGTGTCACGGAGTCACCTAGTGCAG” is 8080 fluorescence intensity (a.u.).
“GATGATGTTTCCTGTCCTCCAACTTTCTACAGAATTTTGACGGAGTCACCTAGTGCAG”: the binding signal is 8340 fluorescence intensity (a.u.).
Next, “GGCGGCGCTCGTCATGCTCCAGTTCTTCACCGCCGGCGGCCGGAGTCACCTAGTGCAG”: 8880 fluorescence intensity (a.u.); “TCAAACTACTAACTTTTTCATCACATCAAAATTTTTCTACCGGAGTCACCTAGTGCAG”: 9000 fluorescence intensity (a.u.).
Next, “GTGTAGCCCATCACGTAAGCCTCACCTTTGACCGGCCGTACGGAGTCACCTAGTGCAG”: 8510 fluorescence intensity (a.u.); “GAAGATTAGGGTTTCGTCCTGGTTACCAGCCGTCGCCTGTCGGAGTCACCTAGTGCAG”: 9300 fluorescence intensity (a.u.).
Turning to “CGTTTGACCACTCGTCTTATTCAATTTTTTTTTGCAAATGCGGAGTCACCTAGTGCAG”, the binding signal is 11400 fluorescence intensity (a.u.).
The figure for “TTTTACACTTCAATTCCTATCAGATTCCTGTGTTTTTCCTCGGAGTCACCTAGTGCAG” is 10100 fluorescence intensity (a.u.); for “TGTATTTTTGTGTCTTACATGTAAGGTCGTAGCTCAATTCCGGAGTCACCTAGTGCAG” it is 10300 fluorescence intensity (a.u.).
Next, “CAGGCTGTTCCTCTACCTCCCGTGGGCCATAGCCTCCGCGCGGAGTCACCTAGTGCAG”: 10100 fluorescence intensity (a.u.); “TATTTTCCGTGTGTACCGTTCCGGTTATCAATACCAGCGCCGGAGTCACCTAGTGCAG”: 8380 fluorescence intensity (a.u.).
Next, “ATCCACCTCGCTTCGCTAGCTAGCTGCTCTCCCCACCTATCGGAGTCACCTAGTGCAG”: 8080 fluorescence intensity (a.u.).
For the sequence “TTTGTGTATTATTTGTATTGTGTTTGTGAATTCAATAAATCGGAGTCACCTAGTGCAG”, the binding signal is 8800 fluorescence intensity (a.u.).
The figure for “TCCTCTACTGGTTCTACGTCTTCTCATAATCAACCCAAATCGGAGTCACCTAGTGCAG” is 11700 fluorescence intensity (a.u.).
